PubChem BioAssay AID1508600 (Functional Genomics Laboratory (NCATS/FGL), 2020)
Hit rate of the full screen: of about 53,000 sequences, about 3,700 (7%) were called active.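 How the source made its calls: active means gene knockdowns whose robust z-score for IL-1 alpha signal is at least 2 or at most -2, so actives lie on both sides; inactive means the rest.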 The list shows a part of the results.

assay: Components of the Cytosolic LPS Sensing Pathway: Gene Identification via Genome-wide siRNA Screen; settings: RAW264.7 macrophages, IL-1a HTRF, actives lie on both sides, screened at 100 nM (by protocol), cells primed 5 h with Pam3CSK4 first;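 further: robust z of the log signal after scaling to non-targeting control siRNA wells of the plate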
In short: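 Read-out: IL-1a HTRF on supernatant, divided by plate negative-control median ×100, log-transformed and converted to robust z-score. Cells were RAW264.7 given 100 nM siRNA, Pam3CSK4-primed 5 hours, then LipidA-transfected 24 hour.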

Q: Which z-score does the source give for UGACGGUUCUAUUGAUUACTT against Smim19 here?
A: inactive: -1.64

Q: For GGCUGACCCUAGAAAGACATT against Lrrc49, which z-score is on record?
A: inactive: 1.18

Q: Which z-score does the source give for GGAAAAAAGAAAUCAGGAUTT against Luc7l here?
A: inactive: 0.278

Q: With CCUAACUGCUAAAUGGUGUTT against Irf1 as the sequence, how does the z-score read?
A: inactive: -0.168

Q: With GGAAAUUUGUGAAAGGACATT against Gata4 as the sequence, how does the z-score read?
A: inactive: -0.542

Q: With GCUUGUAAUGCAGGUUUAATT against Wipf2 as the sequence, how does the z-score read?
A: inactive: 1.94

Q: Which z-score does the source give for GCCUAAUAAGGAGAAACCATT against Car9 here?
A: inactive: -1.42

Q: For CCGCGUGUCUGCUAUCAUCTT against Wdfy1, which z-score is on record?
A: inactive: 0.418

Q: Which z-score does the source give for GUGCUACAUUCUGUCGGGATT against Tm2d3 here?
A: inactive: 1.17

Q: For “GCGAUACAAAGCUAAUCCCTT against 3110009E18Rik”, which z-score is on record?
A: inactive: -1.13

Q: For GGUGCAUGAUUUCAGAAUATT against Rccd1, which z-score is on record?
A: inactive: 0.454

Q: With GGGACAAUGAAUGUGAUCUTT against Adam39 as the sequence, how does the z-score read?
A: active: -2.81

Q: With GGAGAACCUCAAUGACGUGTT against Prtn3 as the sequence, how does the z-score read?
A: inactive: -1.08

Q: Which z-score does the source give for GGAAAUAAUGACCAAGUACTT against Grk5 here?
A: inactive: -1.32

Q: For GGAGUCCAUUUCAUGUUUUTT against Tiparp, which z-score is on record?
A: inactive: -1.56

Q: With GCAUCAGAUUAUCUCACUGTT against Mtrf1l as the sequence, how does the z-score read?
A: inactive: 0.261

Q: Which z-score does the source give for CCAUUCUCAGGCAAAUACUTT against Pid1 here?
A: active: 2.11

Q: With GGCCACAUGAGAUUGCUUUTT against Tnfrsf13c as the sequence, how does the z-score read?
A: inactive: -0.537

Q: Which z-score does the source give for GCGCGAGUUAUUGAUUCCGTT against Wee1 here?
A: inactive: -0.561

Q: Which z-score does the source give for GGACAAGAAGUGUGUAUACTT against Mrc2 here?
A: inactive: -1.77

Q: For GGAGAUUGAGGAGGAGGCUTT against Incenp, which z-score is on record?
A: inactive: -1.41

Q: With GCCUGUCAGAUAAGUUUAATT against Rbpms2 as the sequence, how does the z-score read?
A: inactive: 0.196

Q: For GGAAAGCUUCAAAAUGGUGTT against Foxj2, which z-score is on record?
A: inactive: -1.26

Q: With CCAUUGAAAUUUCCAUCUGTT against Baalc as the sequence, how does the z-score read?
A: inactive: 0.115

Q: Which z-score does the source give for GGAAAAACUGGGAAUGGCUTT against Fbln7 here?
A: inactive: -0.0905

Q: With GGCUGAUGUGUUGAAGAUUTT against Cetn3 as the sequence, how does the z-score read?
A: inactive: -0.397

Q: With GGCUUUUGUUUCUUAUGUCTT against Gbp9 as the sequence, how does the z-score read?
A: inactive: -0.871

Q: For GGUAUCUUUAGGUUUCUGGTT against Vmn2r37, which z-score is on record?
A: inactive: 0.499

Q: For GGGUGUCUUUCCUGUGUGATT against Pkmyt1, which z-score is on record?
A: inactive: -0.804

Q: For GGACCAGAGGAGAUUUCAATT against Ern2, which z-score is on record?
A: inactive: 1.56

Q: Which z-score does the source give for GGAAACCCAUUCACAAAUCTT against Tfec here?
A: inactive: 0.798

Q: With GCCUUGAGACAAUGAGACATT against Ambn as the sequence, how does the z-score read?
A: inactive: -0.651

Q: For GCUCAGAGACAAGCAACUGTT against Kcnk7, which z-score is on record?
A: inactive: 0.247

Q: With “CGUGUCUGAAGGACUACAATT against 1700052K11Rik” as the sequence, how does the z-score read?
A: inactive: 0.0454

Q: Which z-score does the source give for GGUGCUGGAGUUCAUGUACTT against Zbtb17 here?
A: inactive: -0.172

Q: For GGAAUUGUAUUACUUUGAGTT against Tm9sf1, which z-score is on record?
A: inactive: -0.473

Q: With GGUGGUAAAUAAUUAAGGATT against Clec14a as the sequence, how does the z-score read?
A: inactive: 0.623

Q: Which z-score does the source give for CCGGACCUUAUUGUCAUUUTT against Higd2a here?
A: inactive: -0.943

Q: For UAGGACAGGGAAAAAACUATT against Olfr1065, which z-score is on record?
A: inactive: 1.01

Q: Which z-score does the source give for GGACAAAAUAGAGUGGAUCTT against Ropn1l here?
A: inactive: -0.202

Q: For CGAGCUUUCUUCGUACACCTT against Dvl2, which z-score is on record?
A: inactive: -1.74

Q: Which z-score does the source give for GCGGGUUAAUUAUCAACUUTT against Agpat3 here?
A: inactive: 0.071

Q: With GGACAUUGUCAAUAUGCUCTT against Pygm as the sequence, how does the z-score read?
A: inactive: 0.633

Q: With GGUAAUCAAAGAAGUCAAGTT against Dnaja2 as the sequence, how does the z-score read?
A: inactive: 1.99

Q: Which z-score does the source give for GGCCUGAGUAUAAAGUUAGTT against Wbp2 here?
A: inactive: 1.6

Q: Which z-score does the source give for GGGAUGAACUAUUGGCAGGTT against Lyzl1 here?
A: inactive: -0.679

Q: With CAGUGCUCAUCAAUAUUGATT against Olfr1163 as the sequence, how does the z-score read?
A: inactive: -0.188

Q: With CCACCCUUCUUCUAUCGAATT against Ybx2 as the sequence, how does the z-score read?
A: inactive: -1.11

Q: With CGUGAGUGUCCAUGUGACCTT against C4a as the sequence, how does the z-score read?
A: inactive: -1.23

Q: Which z-score does the source give for GCUGUUGAUUGGUCAACUATT against Lmnb1 here?
A: inactive: -1.08

Q: For CCAACACGCGCUCUUUUGATT against Ccdc177, which z-score is on record?
A: inactive: 0.196

Q: For GGAGUAUAAUGCCUUGGUUTT against Aamdc, which z-score is on record?
A: inactive: 0.113

Q: For CGAACUACUGACCCAGCUUTT against Ocstamp, which z-score is on record?
A: inactive: -1.85

Q: For GGUGUACCAGCAUAGCUGUTT against Hps5, which z-score is on record?
A: inactive: 1.24

Q: Which z-score does the source give for GGGACCUUGGAUUGUGUUGTT against Pla2g10 here?
A: inactive: 0.8

Q: With GGCCUUUAAAACUCCUGAATT against Lzic as the sequence, how does the z-score read?
A: inactive: 0.223

Q: With GGACAUGAAGAUAGCAAUUTT against Olfr424 as the sequence, how does the z-score read?
A: inactive: 0.0469

Q: With “GCAUGCGUGUCCAUCACAUTT against A730036I17Rik” as the sequence, how does the z-score read?
A: inactive: -0.426

Q: Which z-score does the source give for GCUUACUUGGUGCUCGUGUTT against Mettl21e here?
A: inactive: 1.95

Q: Which z-score does the source give for GGAAAUUAUUCCAAGGUCUTT against Mepce here?
A: inactive: 0.532

Q: For CCCUGUUAAGUCAACUAUGTT against Actl7a, which z-score is on record?
A: inactive: 0.625

Q: Which z-score does the source give for GCACAACAAGACUUUUCUCTT against Epm2a here?
A: inactive: 0.0872

Q: For GGAUGUUGGCCUCUUUCUCTT against Olfr53, which z-score is on record?
A: inactive: -0.137

Q: For GGACAAGUCCACAGUGUUUTT against Lss, which z-score is on record?
A: inactive: 1.68

Q: With GCAGUCCUCCAUUAAGGUATT against Nr4a2 as the sequence, how does the z-score read?
A: inactive: 0.971

Q: Which z-score does the source give for GGUAGAAGAGAACUGGACATT against Oas1a here?
A: inactive: 0.228

Q: With GGAAACAUGAUCAUUUUGATT against Olfr1179 as the sequence, how does the z-score read?
A: inactive: 0.49

Q: With GGUUCUUGCUGAGAGCAUGTT against Rft1 as the sequence, how does the z-score read?
A: inactive: 0.943

Q: Which z-score does the source give for GGUCCUGAUGAAGAACGUGTT against Polr3e here?
A: inactive: 0.849

Q: Which z-score does the source give for GCUAAGUACAGCAAGGACUTT against Abt1 here?
A: inactive: -1.76

Q: Which z-score does the source give for GGCUGUCCAUUUUCUUAUCTT against Stc2 here?
A: inactive: 0.128

Q: Which z-score does the source give for GCGAAAUUCUGAAAAAGCCTT against Abca12 here?
A: inactive: 1.37

Q: For CCUUGCUUCGCCUACUUCUTT against Rab3ip, which z-score is on record?
A: inactive: 0.0561

Q: For GGAAACAAGACAUAAUAGGTT against Fbxo42, which z-score is on record?
A: inactive: 0.458

Q: With GCCUUACACUUUCCUACAATT against Lrrc41 as the sequence, how does the z-score read?
A: inactive: 0.894

Q: With GCCUACAAUCUGAAUGAAGTT against Ctla2a as the sequence, how does the z-score read?
A: inactive: 0.796

Q: For GGAGAUAAAAAUCCAAGCATT against Stx19, which z-score is on record?
A: inactive: 0.274

Q: Which z-score does the source give for GGACAUCAGUAUGAAUAAGTT against Wdr92 here?
A: inactive: -0.728

Q: Which z-score does the source give for GGGAUUUGCUUCAACCUGGTT against Tmem128 here?
A: inactive: -0.69

Q: With GGUAUCUGUGUGACUUCACTT against Pgpep1 as the sequence, how does the z-score read?
A: active: 3.63

Q: With GCCUAGCUAUAUUAAACUCTT against Inpp5e as the sequence, how does the z-score read?
A: inactive: -0.119

Q: For GGAUGUGAUGGCGACUCUATT against Frmpd3, which z-score is on record?
A: inactive: 1.66

Q: With GCUGUGAAAUGUUACUGCUTT against Slc10a5 as the sequence, how does the z-score read?
A: inactive: 0.954

Q: With GGACAAAUUACAGGAUUAATT against Sod1 as the sequence, how does the z-score read?
A: inactive: 0.424

Q: Which z-score does the source give for GCGUAUGUACCGAUGGCAGTT against Mocs2 here?
A: inactive: 0.871

Q: With GCAGAAAGAAACGUAAAUGTT against Dhx57 as the sequence, how does the z-score read?
A: inactive: 0.464

Q: With GCGAAGCGUGCUGCUAAGATT against Ccdc59 as the sequence, how does the z-score read?
A: inactive: 0.519

Q: Which z-score does the source give for GGUCUAAUCCAGAAUCAGUTT against Ppm1f here?
A: inactive: 0.735

Q: For GGUACUGAAGGAAAUCUCUTT against Nek11, which z-score is on record?
A: inactive: 0.659

Q: For GGAGGUUAAAUUUUUCAGATT against Ubr2, which z-score is on record?
A: inactive: 0.196

Q: For CCCAUAAUGGACUAAAACUTT against Tjp2, which z-score is on record?
A: inactive: -0.738

Q: With GGCUCUCUGGAGAAUCAUGTT against Slc25a28 as the sequence, how does the z-score read?
A: inactive: 0.0751

Q: For GGACUACCUACUGAGCAACTT against Disc1, which z-score is on record?
A: inactive: -0.16

Q: Which z-score does the source give for GGUGUAAAAUGUAAAGCUGTT against Hpgd here?
A: inactive: -1.75

Q: Which z-score does the source give for GCAGCAGCAGGUGUCUAUGTT against Nanos3 here?
A: inactive: -0.793

Q: For GGAGCUGGUCUUUUUUUUUTT against Rhobtb2, which z-score is on record?
A: inactive: 0.614

Q: Which z-score does the source give for GGAGACGUGUCAACAUUUUTT against Tob1 here?
A: inactive: 0.842

Q: With CCUAUGCGAUUAUCGCUGCTT against Wnt7a as the sequence, how does the z-score read?
A: inactive: 1.19

Q: With GGCCCUGCCAGGUUUUUAGTT against Phactr1 as the sequence, how does the z-score read?
A: inactive: -0.476

Q: Which z-score does the source give for GCAAUGCCUCAUUUCCUUGTT against S100pbp here?
A: inactive: 0.215

Q: With GGUCAUUUUAUCUAAUGUCTT against Ctse as the sequence, how does the z-score read?
A: inactive: -0.107

Q: With GCAUCGUGUGUGUAGAUAATT against Rnf187 as the sequence, how does the z-score read?
A: inactive: -0.283

Q: Which z-score does the source give for “GGAACAACACCUCUUCCUATT against A830005F24Rik” here?
A: inactive: 0.95

Q: With GCGGAUUAACCUCUGUGGCTT against Igfl3 as the sequence, how does the z-score read?
A: inactive: 0.244

Q: With “GGUCAACUCUAAGAUGCUGTT against 9930012K11Rik” as the sequence, how does the z-score read?
A: inactive: 1.35

Q: Which z-score does the source give for GCGCGACAAAUCGUAGGCUTT against Mamstr here?
A: active: -2.13

Q: For GGGUUUCUGGAAUACAUUCTT against Mfng, which z-score is on record?
A: inactive: 0.219
